# Experimental data published in PubChem BioAssay AID1347076 (National Center for Advancing Translational Sciences (NCATS), 2019).
# Hit rate of the full screen: of about 400,000 compounds, about 13,000 (3.2%) were called active. The inconclusive results got no clear call from the source; some entries with a clear call stand among them for comparison. Calls come from the whole dose curve; as a rule, active = well fitted cell-killing curve with a large enough effect; inconclusive = small, poorly fitted or top-dose-only effect, or effect the other way; inactive = flat fitted curve, though single readings scatter. Potencies beside an inconclusive call are fits to weak or partial responses and may not hold up.
# Assay: qHTS assay for MDR1-selective chemotherapeutics: Primary screen using the drug-selected MDR subline cells KB-V1; note: nearly all actives have a fitted effect of over 60% in size
# Conditions: KB-V1 MDR cells viability, CellTiter-Glo, 72 h; activity change, negative = cytotoxicity: at 46.1 µM (top of the series)
# Outline: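 Cytotoxicity via CellTiter-Glo luminescence after 72 h compound exposure at 37 degrees C. Cells: drug-selected KB-V1 line, DMEM phenol-red free plus 10% FBS. Compounds tested at multiple concentrations; normalized data fitted to concentration-effect curves.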
# % is set by controls: 0 for no effect and ±100 for the full control effect; potency is the fitted concentration of half-maximal effect.
Structure (SMILES),"activity change, negative = cytotoxicity",Potency
CC(=O)c1ccccc1OCc1ccc(S(=O)(=O)Cc2ccccc2)cc1,inactive: -13.8%,
CC(C)(C)N=C1NN=C(c2cc3ccccc3o2)CS1,,"inconclusive: 23.1 µM [cytotoxic, partial curve, poor fit]"
CCc1nc(CN2CCCC(C(=O)Nc3ccc(-c4cccc(OC)c4)cc3)C2)c(C)[nH]1 (stereo unspecified),inactive: -6.83%,
O=C(CSc1nc(=O)n2cc(Cl)ccc2n1)Nc1ccc2c(c1)OCCO2,,"inconclusive: 29.1 µM [cytotoxic, single point]"
COc1ccc(-c2ccc(SCc3ccccn3)nn2)cc1OC,,"inconclusive: 29.1 µM [cytotoxic, single point]"
COc1ccc(C2=NS(=O)(=O)N(C)C(C(=O)Nc3ccc(C(C)=O)cc3)=C2)cc1OC,inactive: -3.35%,
CC(C)CCNC(=O)c1[nH]c(C(F)(F)F)nc1-c1ccccc1,inactive: -16.3%,
Cc1cccc(C(=O)Nc2ccc(C(=O)N3CCCCC3C)cc2)c1 (stereo unspecified),inactive: -10.7%,
CCOC(=O)c1sc(-c2ccccc2)cc1NC(=O)Nc1ccc([N+](=O)[O-])cc1,,"inconclusive: 29.1 µM [cytotoxic, single point]"
CC(C)C[C@H](N)c1nnc(SCc2ccc(Cl)cc2Cl)o1,,"inconclusive: 11.6 µM [cytotoxic, partial curve]"
COCCN(Cc1ccccc1)C(=O)c1cccc(S(=O)(=O)N2CCN(Cc3ccccc3)CC2)c1,,"inconclusive: 3.26 µM [cytotoxic, partial curve, poor fit]"
Nc1nc2c(ncn2COCCO)c(=O)[nH]1,,"inconclusive: 23.1 µM [rising, single point]"
Cc1ccc(-c2nc(S(=O)(=O)c3ccc(F)cc3)c(N3CCN(c4ccccc4)CC3)o2)cc1,inactive: -6.86%,
CC1CN(c2ccc([N+](=O)[O-])c(NCCOc3ccccc3)c2)CC(C)N1 (stereo unspecified),,"inconclusive: 0.0046 µM [cytotoxic, full curve, poor fit]"
Nc1[nH]c(=O)[nH]c(=O)c1N=Nc1ccc(C(=O)O)cc1,inactive: 25.6%,
Cc1ccnc(NC(=O)CCC(=O)N(CC(=O)NCc2ccc(F)cc2)c2ccc(F)cc2)c1,,"inconclusive: 10.3 µM [cytotoxic, partial curve, poor fit]"
Cc1cc(C)n2nc(C(=O)OCC(=O)NNC(=O)c3ccccc3)nc2n1,,"inconclusive: 29.1 µM [rising, single point]"
O=C(CSc1nc2ccccc2c(=O)[nH]1)Nc1ccc([N+](=O)[O-])cc1,,"inconclusive: 20.6 µM [cytotoxic, single point]"

Structure (SMILES),"activity change, negative = cytotoxicity",Potency
O=c1c2[nH]c3ccccc3c2ncn1CCC1=CCCCC1,inactive: 5.64%,
C=CCN1C2CCCC1CC(NC(=O)Nc1cc(C)cc(C)c1)C2 (stereo unspecified),inactive: -1.12%,
CC1(C(=O)NCc2ccco2)Cc2c(-c3ccccc3)ccnc2O1 (stereo unspecified),,active: 7.31 µM
OC(COCc1ccc2c(c1)OCO2)CN1CCC(Cc2ccccc2)CC1 (stereo unspecified),,"inconclusive: 14.6 µM [cytotoxic, partial curve]"
Cc1cccc(NS(=O)(=O)c2ccc(-c3cnc(C4CC4)o3)cc2)c1C,,"inconclusive: 0.731 µM [cytotoxic, full curve, poor fit]"
O=C(Nc1cccc(S(=O)(=O)N2CCCCC2)c1)c1cccs1,,"inconclusive: 14.6 µM [cytotoxic, single point]"
O=S(=O)(NC1CCCC1)c1ccc(F)cc1F,inactive: 12.2%,
Cc1cccc(C)c1NC(=S)NC(=O)c1ccc(Br)o1,,"inconclusive: 29.1 µM [cytotoxic, single point]"
CSc1ccc(CN(C)Cc2nc3ccccc3c(=O)[nH]2)cc1,,active: 20.6 µM
CCCCCCN1C=CC=C/C1=C/C=C(C#N)C#N,inactive: -8.75%,
CC(=O)N1CCN(c2ccc(NC(=O)c3ccc4c(c3)OCCO4)cc2Cl)CC1,,"inconclusive: 7.31 µM [cytotoxic, partial curve]"
Cc1nn(-c2ccccc2)c2sc(C(=O)NNC(=O)COc3cccc4ccccc34)cc12,,active: 18.4 µM
Cc1ccc(-c2nsc(SCC(=O)NCC3CCCO3)n2)cc1 (stereo unspecified),,"inconclusive: 16.4 µM [cytotoxic, single point]"
CCOc1ccccc1NC(=O)c1nc(S(=O)(=O)Cc2cccc(C)c2)ncc1Cl,,"inconclusive: 20.6 µM [cytotoxic, single point]"
O=C(NC(c1ccc2c(c1)OCO2)c1ccccn1)C1CCN(CCOc2ccccc2)CC1 (stereo unspecified),inactive: 3.02%,
O=C(NC1CCCC1)c1ccc(CSCc2ccccc2F)o1,,active: 14.6 µM
Cc1cc(C)c2ccc3c(C)c(C)nc3c2[nH]1,,active: 16.4 µM
O=C(Cn1cc(COc2ccc3ccc(=O)oc3c2)nn1)c1ccc(O)cc1,inactive: -9.14%,

# Grouped by structure: the entries above with an aryl thioether with sulfur outside any ring.
Structure (SMILES),"activity change, negative = cytotoxicity",Potency
O=C(CSc1nc(=O)n2cc(Cl)ccc2n1)Nc1ccc2c(c1)OCCO2,,"inconclusive: 29.1 µM [cytotoxic, single point]"
COc1ccc(-c2ccc(SCc3ccccn3)nn2)cc1OC,,"inconclusive: 29.1 µM [cytotoxic, single point]"
CC(C)C[C@H](N)c1nnc(SCc2ccc(Cl)cc2Cl)o1,,"inconclusive: 11.6 µM [cytotoxic, partial curve]"
O=C(CSc1nc2ccccc2c(=O)[nH]1)Nc1ccc([N+](=O)[O-])cc1,,"inconclusive: 20.6 µM [cytotoxic, single point]"
CSc1ccc(CN(C)Cc2nc3ccccc3c(=O)[nH]2)cc1,,active: 20.6 µM
Cc1ccc(-c2nsc(SCC(=O)NCC3CCCO3)n2)cc1 (stereo unspecified),,"inconclusive: 16.4 µM [cytotoxic, single point]"
